The values below come from doi:10.1101/2024.07.31.606019.

By UniProt entry, the sequences of proteins in these tests, tags left out.
UniProt Q05609: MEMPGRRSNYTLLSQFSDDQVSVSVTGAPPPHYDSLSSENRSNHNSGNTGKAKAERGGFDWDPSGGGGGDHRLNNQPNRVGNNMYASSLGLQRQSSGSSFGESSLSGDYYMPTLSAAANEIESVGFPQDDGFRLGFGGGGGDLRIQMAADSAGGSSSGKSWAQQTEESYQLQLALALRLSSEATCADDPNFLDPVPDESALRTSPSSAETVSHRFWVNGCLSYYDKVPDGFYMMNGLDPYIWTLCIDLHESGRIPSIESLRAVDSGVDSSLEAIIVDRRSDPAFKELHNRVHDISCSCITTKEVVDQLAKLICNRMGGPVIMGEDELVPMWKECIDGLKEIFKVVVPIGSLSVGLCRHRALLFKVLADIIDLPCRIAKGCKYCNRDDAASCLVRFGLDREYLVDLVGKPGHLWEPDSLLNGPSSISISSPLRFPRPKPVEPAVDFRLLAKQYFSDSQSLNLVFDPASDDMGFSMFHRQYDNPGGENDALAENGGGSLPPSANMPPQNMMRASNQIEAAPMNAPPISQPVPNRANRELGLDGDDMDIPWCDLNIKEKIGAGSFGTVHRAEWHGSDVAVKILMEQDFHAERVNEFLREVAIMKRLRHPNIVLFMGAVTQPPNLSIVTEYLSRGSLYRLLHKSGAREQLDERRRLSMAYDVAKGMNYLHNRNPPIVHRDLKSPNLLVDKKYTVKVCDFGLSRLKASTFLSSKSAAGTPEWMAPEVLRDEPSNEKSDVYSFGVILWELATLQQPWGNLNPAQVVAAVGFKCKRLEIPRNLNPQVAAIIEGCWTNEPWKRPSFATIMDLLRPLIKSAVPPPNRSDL

The target in test [1] is nYFP-CTR1 (Constitutive Triple Response 1) (Arabidopsis thaliana) (UniProt Q05609). The test is described as follows: split reporter.
The target of test [2] is GFP-CTR1 (35S:GFP-CTR1) (Arabidopsis thaliana) (UniProt Q05609). Nature of the test: co-IP.

These are yes or no findings as the source states them, for the method shown. In cells and extracts the contact can be indirect. Some binding calls cover weakened binding; strength is not graded here. Sequences can lack the tags named with a protein.

B1: cYFP-ATG8a (protein, UniProt Q8LEM4 1-117)
chain: MAKSSFKISNPLEARMSESSRIREKYPDRIPVIVEKAGQSDVPDIDKKKYLVPADLTVGQFVYVVRKRIKLGAEKAIFVFVKNTLPPTAALMSAIYEEHKDEDGFLYMTYSGENTFG
In the case of B1, the binding result in test [1] was “binds”.

B2: myc-ATG8a (35S:Myc-ATG8a) (protein, UniProt Q8LEM4 1-117)
chain: MAKSSFKISNPLEARMSESSRIREKYPDRIPVIVEKAGQSDVPDIDKKKYLVPADLTVGQFVYVVRKRIKLGAEKAIFVFVKNTLPPTAALMSAIYEEHKDEDGFLYMTYSGENTFG
B2: in test [2], the binding result is on record as “binds”.
